These are yes or no findings as the source states them, for the method shown. In cells and extracts the contact can be indirect. Here binding means that the protein was enriched with, or labelled near, the bait; the list need not be complete. Tags and fused reporters may be left off the sequences shown.
Target: T1, Flag‐LpIA‐IFN‐γR1WT (human) (UniProt P15260)
T1 sequence: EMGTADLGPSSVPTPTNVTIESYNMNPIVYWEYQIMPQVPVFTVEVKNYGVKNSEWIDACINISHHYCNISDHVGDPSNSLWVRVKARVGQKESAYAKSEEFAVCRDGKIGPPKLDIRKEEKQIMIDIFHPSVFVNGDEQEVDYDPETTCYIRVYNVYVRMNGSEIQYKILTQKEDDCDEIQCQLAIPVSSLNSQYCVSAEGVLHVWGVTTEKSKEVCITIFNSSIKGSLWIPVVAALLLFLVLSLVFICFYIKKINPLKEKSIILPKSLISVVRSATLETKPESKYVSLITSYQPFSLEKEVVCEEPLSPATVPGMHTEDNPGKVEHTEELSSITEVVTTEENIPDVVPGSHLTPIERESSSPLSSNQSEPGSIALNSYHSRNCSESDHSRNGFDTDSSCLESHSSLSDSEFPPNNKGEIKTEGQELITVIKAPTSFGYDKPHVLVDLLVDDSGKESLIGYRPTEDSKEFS
Experiment: proximity labelling; ID-PRIME on the surface of living HEK cells co-transfected with the bait Flag-LplA-IFN-γR1 and the prey HA-LAP2-IFN-γR2 (wild type or mutant); pAz + ATP, 37 °C, then DBCO-Cy3 click chemistry, pAz signal normalised on anti-HA signal; cells untreated or stimulated with IFN-γ (1000 U/mL, 5 min); also cells treated with zaragozic acid (15 µM, 24 h)

B1: HA‐LAP2‐IFN‐γR2WT (receptor, UniProt P38484 22-337)
chain: APPDPLSQLPAPQHPKIRLYNAEQVLSWEPVALSNSTRPVVYQVQFKYTDSKWFTADIMSIGVNCTQITATECDFTAASPSAGFPMDFNVTLRLRAELGALHSAWVTMPWFQHYRNVTVGPPENIEVTPGEGSLIIRFSSPFDIADTSTAFFCYYVHYWEKGGIQQVKGPFRSNSISLDNLKPSRVYCLQVQAQLLWNKSNIFRVGHLSNISCYETMADASTELQQVILISVGTFSLLSVLAGACFFLVLKYRGLIKYWFHTPPSIPLQIEEYLKDPTQPILEALDKDSSPKDDVWDSVSIISFPEKEQEDVLQTL
binding: binds

Source: paper PMC9008429, “Identification of a New Cholesterol‐Binding Site within the IFN‐γ Receptor that is Required for Signal Transduction” (Advanced Science, 2022)
